Binding data for 5 molecules are collected here from PMC13036090.

Protein sequences, listed by entry. Tags and fused reporters are not part of them.
UniProt P42224: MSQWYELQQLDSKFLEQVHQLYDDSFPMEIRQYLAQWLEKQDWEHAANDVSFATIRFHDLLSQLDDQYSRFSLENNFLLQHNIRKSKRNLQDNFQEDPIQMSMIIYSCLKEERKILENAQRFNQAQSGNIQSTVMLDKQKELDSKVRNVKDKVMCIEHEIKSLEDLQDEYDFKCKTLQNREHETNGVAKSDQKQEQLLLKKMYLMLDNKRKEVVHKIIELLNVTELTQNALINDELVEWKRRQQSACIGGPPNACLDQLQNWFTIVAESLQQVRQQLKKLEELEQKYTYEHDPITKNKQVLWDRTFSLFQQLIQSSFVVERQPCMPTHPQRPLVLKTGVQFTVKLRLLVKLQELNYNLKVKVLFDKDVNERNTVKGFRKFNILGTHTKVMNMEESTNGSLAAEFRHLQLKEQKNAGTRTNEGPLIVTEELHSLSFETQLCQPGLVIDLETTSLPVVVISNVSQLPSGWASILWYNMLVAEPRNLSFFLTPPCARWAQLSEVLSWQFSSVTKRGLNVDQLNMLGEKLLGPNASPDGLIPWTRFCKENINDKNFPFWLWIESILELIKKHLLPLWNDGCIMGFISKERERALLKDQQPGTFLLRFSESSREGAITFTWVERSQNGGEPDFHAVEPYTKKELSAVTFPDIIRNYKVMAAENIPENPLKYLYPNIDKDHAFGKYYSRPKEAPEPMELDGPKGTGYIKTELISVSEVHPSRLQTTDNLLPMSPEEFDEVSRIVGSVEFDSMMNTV
UniProt Q14974: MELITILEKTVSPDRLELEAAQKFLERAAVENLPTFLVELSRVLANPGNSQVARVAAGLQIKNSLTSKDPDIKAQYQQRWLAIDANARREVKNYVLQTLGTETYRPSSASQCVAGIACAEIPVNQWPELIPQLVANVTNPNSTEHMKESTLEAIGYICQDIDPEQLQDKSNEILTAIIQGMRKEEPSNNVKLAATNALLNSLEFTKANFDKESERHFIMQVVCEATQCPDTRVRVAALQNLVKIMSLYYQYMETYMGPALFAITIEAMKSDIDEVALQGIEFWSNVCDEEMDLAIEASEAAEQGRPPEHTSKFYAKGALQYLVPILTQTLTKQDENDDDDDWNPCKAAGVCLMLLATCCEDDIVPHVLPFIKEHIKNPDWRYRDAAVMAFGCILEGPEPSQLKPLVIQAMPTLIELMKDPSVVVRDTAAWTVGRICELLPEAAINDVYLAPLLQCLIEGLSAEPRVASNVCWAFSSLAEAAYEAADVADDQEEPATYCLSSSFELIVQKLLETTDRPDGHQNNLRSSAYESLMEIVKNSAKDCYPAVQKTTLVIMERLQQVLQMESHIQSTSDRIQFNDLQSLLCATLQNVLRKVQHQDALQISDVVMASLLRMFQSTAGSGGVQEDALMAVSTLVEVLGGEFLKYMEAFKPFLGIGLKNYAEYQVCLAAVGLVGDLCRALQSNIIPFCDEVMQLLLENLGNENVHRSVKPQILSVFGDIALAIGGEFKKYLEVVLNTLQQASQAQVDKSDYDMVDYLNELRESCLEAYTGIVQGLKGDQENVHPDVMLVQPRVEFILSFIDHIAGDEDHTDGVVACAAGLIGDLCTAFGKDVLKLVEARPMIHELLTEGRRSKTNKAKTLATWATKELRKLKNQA
UniProt Q15717: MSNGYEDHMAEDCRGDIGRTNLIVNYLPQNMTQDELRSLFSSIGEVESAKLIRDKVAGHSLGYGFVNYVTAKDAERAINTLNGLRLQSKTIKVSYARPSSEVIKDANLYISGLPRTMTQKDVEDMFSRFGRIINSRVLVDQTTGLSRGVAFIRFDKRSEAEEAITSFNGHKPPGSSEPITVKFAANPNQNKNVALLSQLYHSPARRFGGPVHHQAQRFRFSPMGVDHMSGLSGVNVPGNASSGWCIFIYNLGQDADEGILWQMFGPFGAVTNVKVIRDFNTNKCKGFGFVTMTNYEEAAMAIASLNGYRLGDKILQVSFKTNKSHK

Assay [1] deals with T1, HA-tagged UGDH, wild type (human) (UniProt O60701).
T1 sequence (chain, O-GlcNAc on Ser350 (major site) on part of the protein): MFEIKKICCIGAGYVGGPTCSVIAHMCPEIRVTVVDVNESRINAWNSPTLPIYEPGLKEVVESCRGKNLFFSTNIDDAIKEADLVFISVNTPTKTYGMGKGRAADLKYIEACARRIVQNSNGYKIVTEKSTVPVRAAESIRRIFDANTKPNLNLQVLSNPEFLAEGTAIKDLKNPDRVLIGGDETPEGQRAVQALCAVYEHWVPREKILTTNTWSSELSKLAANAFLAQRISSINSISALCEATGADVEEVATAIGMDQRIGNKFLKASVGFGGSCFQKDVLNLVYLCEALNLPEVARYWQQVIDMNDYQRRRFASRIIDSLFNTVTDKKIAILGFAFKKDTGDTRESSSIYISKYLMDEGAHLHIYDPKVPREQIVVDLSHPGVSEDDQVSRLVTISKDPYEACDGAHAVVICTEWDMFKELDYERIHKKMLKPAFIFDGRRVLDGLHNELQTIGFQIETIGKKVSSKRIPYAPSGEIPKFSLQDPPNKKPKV
The experiment in a line: co-IP; Fig. 7D-H; tagged proteins co-expressed in HEK293T; Co-IP buffer 0.4% NP-40, 150 mM NaCl, 50 mM Hepes, pH 7.8; anti-Flag/anti-HA magnetic agarose beads, 4 °C overnight; Western blotting; also with TMG or OSMI-4 treatment of the cells. (A western blot detects proteins with antibodies after separation by electrophoresis.)

Assay [2] concerns the target T2, UGDH (uridine diphosphate glucose dehydrogenase), wild type, construct not stated for these experiments (human) (UniProt O60701).
T2 sequence (chain, O-GlcNAc on Ser350 (major site) on part of the protein): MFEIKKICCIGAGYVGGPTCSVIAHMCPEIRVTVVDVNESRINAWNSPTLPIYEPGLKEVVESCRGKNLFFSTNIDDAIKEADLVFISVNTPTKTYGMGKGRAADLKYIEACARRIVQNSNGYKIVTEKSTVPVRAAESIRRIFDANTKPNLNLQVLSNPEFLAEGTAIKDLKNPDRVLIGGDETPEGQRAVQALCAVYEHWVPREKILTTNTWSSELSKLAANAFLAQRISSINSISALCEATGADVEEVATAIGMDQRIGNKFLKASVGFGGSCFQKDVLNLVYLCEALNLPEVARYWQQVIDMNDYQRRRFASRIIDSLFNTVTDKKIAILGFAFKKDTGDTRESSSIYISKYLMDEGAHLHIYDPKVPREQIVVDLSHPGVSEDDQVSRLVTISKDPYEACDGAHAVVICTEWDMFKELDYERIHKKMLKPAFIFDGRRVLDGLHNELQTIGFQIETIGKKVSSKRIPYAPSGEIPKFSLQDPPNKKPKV
The assay can be described thus: co-IP; Fig. S8A; HuR and UGDH under modulation of O-GlcNAcylation; constructs and cells not told.

In assay [3] the target is T2, UGDH (uridine diphosphate glucose dehydrogenase), wild type, construct not stated for these experiments (human). The experiment in a line: co-IP; Fig. 1H, I; cells, tags and bait not told; Co-IP buffer 0.4% NP-40, 150 mM NaCl, 50 mM Hepes, pH 7.8; anti-Flag/anti-HA magnetic agarose beads, 4 °C overnight; Western blotting.

No constants are given. Whether binding was seen depends on the method and setting. Binding seen in cells or lysates may run through a third protein. Some binding calls cover weakened binding; strength is not graded here. Sequences can lack the tags named with a protein.

Consider “Flag-tagged STAT1 (from UniProt P42224 1-750)”, for which the binding result in assay [1] is “binds weakly”.

In the case of “His-tagged KPNB1 (from UniProt Q14974 1-876)”, in assay [1], the binding entry is recorded as “binds”.

For the molecule HuR (from UniProt Q15717 1-326), in assay [2], the binding entry is recorded as “binds”.

B1: O-GlcNAc transferase (OGT) (enzyme, UniProt O15294 1-1046)
chain: MASSVGNVADSTEPTKRMLSFQGLAELAHREYQAGDFEAAERHCMQLWRQEPDNTGVLLLLSSIHFQCRRLDRSAHFSTLAIKQNPLLAEAYSNLGNVYKERGQLQEAIEHYRHALRLKPDFIDGYINLAAALVAAGDMEGAVQAYVSALQYNPDLYCVRSDLGNLLKALGRLEEAKACYLKAIETQPNFAVAWSNLGCVFNAQGEIWLAIHHFEKAVTLDPNFLDAYINLGNVLKEARIFDRAVAAYLRALSLSPNHAVVHGNLACVYYEQGLIDLAIDTYRRAIELQPHFPDAYCNLANALKEKGSVAEAEDCYNTALRLCPTHADSLNNLANIKREQGNIEEAVRLYRKALEVFPEFAAAHSNLASVLQQQGKLQEALMHYKEAIRISPTFADAYSNMGNTLKEMQDVQGALQCYTRAIQINPAFADAHSNLASIHKDSGNIPEAIASYRTALKLKPDFPDAYCNLAHCLQIVCDWTDYDERMKKLVSIVADQLEKNRLPSVHPHHSMLYPLSHGFRKAIAERHGNLCLDKINVLHKPPYEHPKDLKLSDGRLRVGYVSSDFGNHPTSHLMQSIPGMHNPDKFEVFCYALSPDDGTNFRVKVMAEANHFIDLSQIPCNGKAADRIHQDGIHILVNMNGYTKGARNELFALRPAPIQAMWLGYPGTSGALFMDYIITDQETSPAEVAEQYSEKLAYMPHTFFIGDHANMFPHLKKKAVIDFKSNGHIYDNRIVLNGIDLKAFLDSLPDVKIVKMKCPDGGDNADSSNTALNMPVIPMNTIAEAVIEMINRGQIQITINGFSISNGLATTQINNKAATGEEVPRTIIVTTRSQYGLPEDAIVYCNFNQLYKIDPSTLQMWANILKRVPNSVLWLLRFPAVGEPNIQQYAQNMGLPQNRIIFSPVAPKEEHVRRGQLADVCLDTPLCNGHTTGMDVLWAGTPMVTMPGETLASRVAASQLTCLGCLELIAKNRQEYEDIAVKLGTDLEYLKKVRGKVWKQRISSPLFNTKQYTMELERLYLQMWEHYAAGNKPDHMIKPVEVTESA
Consider B1, for which, in assay [3], the binding result is “binds”.

B2: O-GlcNAc hydrolase (OGA) (enzyme, UniProt O60502 1-916)
chain: MVQKESQATLEERESELSSNPAASAGASLEPPAAPAPGEDNPAGAGGAAVAGAAGGARRFLCGVVEGFYGRPWVMEQRKELFRRLQKWELNTYLYAPKDDYKHRMFWREMYSVEEAEQLMTLISAAREYEIEFIYAISPGLDITFSNPKEVSTLKRKLDQVSQFGCRSFALLFDDIDHNMCAADKEVFSSFAHAQVSITNEIYQYLGEPETFLFCPTEYCGTFCYPNVSQSPYLRTVGEKLLPGIEVLWTGPKVVSKEIPVESIEEVSKIIKRAPVIWDNIHANDYDQKRLFLGPYKGRSTELIPRLKGVLTNPNCEFEANYVAIHTLATWYKSNMNGVRKDVVMTDSEDSTVSIQIKLENEGSDEDIETDVLYSPQMALKLALTEWLQEFGVPHQYSSRQVAHSGAKASVVDGTPLVAAPSLNATTVVTTVYQEPIMSQGAALSGEPTTLTKEEEKKQPDEEPMDMVVEKQEETDHKNDNQILSEIVEAKMAEELKPMDTDKESIAESKSPEMSMQEDCISDIAPMQTDEQTNKEQFVPGPNEKPLYTAEPVTLEDLQLLADLFYLPYEHGPKGAQMLREFQWLRANSSVVSVNCKGKDSEKIEEWRSRAAKFEEMCGLVMGMFTRLSNCANRTILYDMYSYVWDIKSIMSMVKSFVQWLGCRSHSSAQFLIGDQEPWAFRGGLAGEFQRLLPIDGANDLFFQPPPLTPTSKVYTIRPYFPKDEASVYKICREMYDDGVGLPFQSQPDLIGDKLVGGLLSLSLDYCFVLEDEDGICGYALGTVDVTPFIKKCKISWIPFMQEKYTKPNGDKELSEAEKIMLSFHEEQEVLPETFLANFPSLIKMDIHKKVTDPSVAKSMMACLLSSLKANGSRGAFCEVRPDDKRILEFYSKLGCFEIAKMEGFPKDVVILGRSL
B2: the binding entry in assay [3] is given as “binds”.
